The text below walks through data of paper doi:10.1101/2022.07.28.501905.

These are yes or no findings as the source states them, for the method shown. For some of these results: Binding seen in cells or lysates may run through a third protein. For some of these results: Binding can be weak; no strength is given. For some of these results: Sequences can lack the tags named with a protein.

Assay [1] has as its target T1, NLuc-RPW8.2 (Arabidopsis) (UniProt Q9C5Z6).
T1 sequence: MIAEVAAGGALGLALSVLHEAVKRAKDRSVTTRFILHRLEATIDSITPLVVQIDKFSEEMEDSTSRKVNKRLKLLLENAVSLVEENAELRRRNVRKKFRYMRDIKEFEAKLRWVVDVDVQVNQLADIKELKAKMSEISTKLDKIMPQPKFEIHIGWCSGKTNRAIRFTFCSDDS
Nature of the assay: split reporter.

For assay [2], the target named is T2, RPW8.2-CT (101-174 aa) fused to the GAL4 DNA-binding domain (Arabidopsis) (UniProt Q9C5Z6).
T2 sequence: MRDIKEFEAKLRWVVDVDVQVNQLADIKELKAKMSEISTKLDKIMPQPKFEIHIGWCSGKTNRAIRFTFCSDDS
Nature of the assay: two-hybrid.

The target in assay [3] is T3, RPW8.2-NT (first 100 aa) fused to the GAL4 DNA-binding domain (Arabidopsis) (UniProt Q9C5Z6).
T3 sequence: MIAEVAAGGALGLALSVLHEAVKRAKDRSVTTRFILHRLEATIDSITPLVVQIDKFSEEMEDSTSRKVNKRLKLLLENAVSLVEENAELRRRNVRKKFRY
Nature of the assay: two-hybrid.

For a further assay, the target named is T4, RPW8.2-YC (Arabidopsis) (UniProt Q9C5Z6).
T4 sequence: T1 sequence
Nature of the assay: split reporter.

As to “CLuc-GcR8IP1 (Golovinomyces cichoracearum UCSC1)”, in assay [1], the binding result was “binds”. With “GcR8IP1-M2 (RING domain-deleted mutant) fused to the GAL4 activation domain (Golovinomyces cichoracearum UCSC1) (domain or fragment)”, the binding entry in assay [2] and in assay [3] was “no binding” in each case. As for “YN-RING (RING domain of GcR8IP1) (Golovinomyces cichoracearum UCSC1) (domain or fragment)”, in the assay with RPW8.2-YC (Arabidopsis), the binding entry is given as “binds”.
